Literature values in patent US20230120564A1, “PYRIDO[3,4-D]PYRIMIDINE DERIVATIVE AND THERAPEUTIC PHARMACEUTIC COMPOSITION COMPRISING SAME” (KOREA INSTITUTE OF SCIENCE AND TECHNOLOGY, priority 2020, published 2023).
At least one structure is not confirmed: it was looked up by name or label, or the drawing left a doubt.

Tested on: AML patients with a NRAS mutant gene
Conditions: phase 2 clinical trials; three AML patients with a NRAS mutant gene; cited from earlier work

## Cn1cnc2c(F)c(Nc3ccc(Br)cc3Cl)c(C(=O)NOCCO)cc21 [selumetinib]
  therapeutic effect: no therapeutic effect
